PubChem BioAssay AID652259, Drosophila RNAi Screening Center | 2013

Screen: 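Knock-downs that push a Wingless-driven reporter up or down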 (primary screen)
System: Drosophila clone 8 imaginal disc epithelial cells
Reagents: long dsRNA against Drosophila genes
Conditions: pathway stimulated by co-transfected Wingless expression plasmid
Read-out: 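Dual luciferase reads per well after Wingless plasmid stimulation: reporter firefly light and Renilla control light; activity is firefly divided by Renilla, a ratio not deposited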
Scale: firefly reporter light: higher = more Wg reporter light, before normalisation; Renilla control light: higher = more transfected or surviving cells
Call rule: 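a knock-down is a candidate when at least two out of four statistical tests show it departing from its plate mean; one test alone signals a weak candidate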
Meaning of the calls: active = candidate regulator (raises or lowers reporter); inactive = not a candidate
In all, the deposit lists about 22,000 reagents; shown is an unselected part of those with a known target gene and a result. In the full data, 233 (1.1%) got an active call. 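Light values are raw, unnormalised plate reads; the ratio scores behind the reporter calls were not deposited.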 Unmarked entries are inactive. Names joined by + are all predicted targets of the reagent. The record does not give: the amount of reagent, the time to read-out, the dose of the treatment.

target	dsRNA	reporter change call, replicate 1	firefly reporter light, replicate 1	firefly reporter light, replicate 2	Renilla control light, replicate 1	Renilla control light, replicate 2
Syn2 (Syntrophin-like 2)	DRSC06902		5200		2588	
CG34002	DRSC09512		4448		1475	
CG7950 + Rpp14a	DRSC16353		1690	4557	1052	1846
SREBP (Sterol regulatory element binding protein)	DRSC11182		5696		1762	
Pdcd4 (Programmed cell death 4)	DRSC19360		19443		11148	
CG32572	DRSC19525		21289		8368	
CG32572	DRSC19526		19676		7520	
TfIIA-S-2	DRSC17791		16215		14299	
Tom20 (Translocase of outer membrane 20)	DRSC10899		9018		3857	
CR6900 (pseudo)	DRSC20018		17580		10864	
mod(mdg4) + pre-mod(mdg4)-U	DRSC13476		3904		1696	
hpRNA:CR32205 (hairpin RNA:CR32205)	DRSC09610		2418		1580	
hpRNA:CR32205 (hairpin RNA:CR32205)	DRSC09890		9385		4192	
CG3638	DRSC18533		17574		8764	
CG30109	DRSC05675		18016		12077	
cGlr2 (cGAS-like receptor 2)	DRSC04017		21568		9224	
Drak (Death-associated protein kinase related)	DRSC19778		12185		6834	
Cpr11B (Cuticular protein 11B)	DRSC19859		2992	7664	827	1831
CG31126	DRSC14623		17776		11501	
Zaf1 (ZAD and Architectural Function 1)	DRSC16121		13939		3628	
Hers (Histone gene-specific Epigenetic Repressor in late S phase)	DRSC19429		3788	8100	1408	3074
Hers (Histone gene-specific Epigenetic Repressor in late S phase)	DRSC19676		18388		13336	
GstE5 (Glutathione S transferase E5)	DRSC06675		9123		3363	
CG11226	DRSC11639		9168		3616	
Zmynd8 (Zinc finger MYND-type containing 8)	DRSC15310		1579	7080	672	1964
CG13896	DRSC08366		5799		2662	
CG33255 (retired record) + CR42842 + hpRNA:CR32205 + 1 more	DRSC09617		7008		1733	
CG10911	DRSC06008		7160		2507	
unc-5	DRSC05545		24152	7.85e5	16464	3.94e5
unc-5	DRSC07711		5468		1850	
unc-5	DRSC07712		3943		1525	
Fbxl7 (F-box and leucine-rich repeat protein 7)	DRSC15553		22132		5292	
fipi (factor of interpulse interval)	DRSC00465		4272	9264	696	1827
Cpr67B (Cuticular protein 67B)	DRSC10373		8023		2983	
Grip75	DRSC03337		1965	7248	549	2967
CG31269	DRSC15744		17012		3078	

Records listed so far whose target name begins with H or h:
target	dsRNA	reporter change call, replicate 1	firefly reporter light, replicate 1	firefly reporter light, replicate 2	Renilla control light, replicate 1	Renilla control light, replicate 2
hpRNA:CR32205 (hairpin RNA:CR32205)	DRSC09610		2418		1580	
hpRNA:CR32205 (hairpin RNA:CR32205)	DRSC09890		9385		4192	
Hers (Histone gene-specific Epigenetic Repressor in late S phase)	DRSC19429		3788	8100	1408	3074
Hers (Histone gene-specific Epigenetic Repressor in late S phase)	DRSC19676		18388		13336	

The results go on.
target	dsRNA	reporter change call, replicate 1	firefly reporter light, replicate 1	firefly reporter light, replicate 2	Renilla control light, replicate 1	Renilla control light, replicate 2
Khc (Kinesin heavy chain)	DRSC07448		19446		5495	
kz (kurz)	DRSC18786		19419		17280	
cv (crossveinless)	DRSC17833		17440		7770	
sunn	DRSC21659		2.84e5	2.99e5	1.54e5	1.29e5
qtc (quick-to-court)	DRSC02364		10285		4294	
qtc (quick-to-court)	DRSC02365		2260	5669	581	1922
Polr2I (RNA polymerase II subunit I)	DRSC16832		14580		2512	
CG13059	DRSC09942		9261		3949	
CG3330	DRSC15477		2457	6500	1073	2224
PIG-N (Phosphatidylinositol glycan anchor biosynthesis class N)	DRSC06837		2328	4437	1139	2228
Cht7 + tRNA:Cys-GCA-1-4 + tRNA:Lys-CTT-1-13	DRSC08021		6034		2746	
Cp7Fa (Chorion protein a at 7F)	DRSC18032		18781		7675	
Cp7Fa (Chorion protein a at 7F)	DRSC18033		18448		7596	
CG16739	DRSC06621		6724		2267	
Crtc (CREB-regulated transcription coactivator)	DRSC10578	Wg reporter activity raised (active)	9178		1300	
Acyp (Acylphosphatase)	DRSC01861		3366	6608	1145	2896
MYPT-75D (Myosin phosphatase targeting subunit 75D)	DRSC10743		5752		2021	
Irk1 (Inwardly rectifying potassium channel 1)	DRSC14686		19419		16237	
Irk1 (Inwardly rectifying potassium channel 1)	DRSC16106		10961		10758	
CG42715 (retired record)	DRSC05499		29270		19426	
Cpr73D (Cuticular protein 73D)	DRSC11084		5136		1959	
aay (astray)	DRSC11320		4995		2570	
Aldh-III (Aldehyde dehydrogenase type III)	DRSC06047		19372		6328	
CG9698	DRSC16539		4625		2509	
Set2 (SET domain containing 2)	DRSC19765		1689	7714	372	2041
Noc2 (Nucleolar complex protein 2)	DRSC03165		6517		2231	
Dgk (Diacyl glycerol kinase)	DRSC05064		16752		6032	
Dgk (Diacyl glycerol kinase)	DRSC05065		19072		7571	
Dgk (Diacyl glycerol kinase)	DRSC06171		3904	7371	1185	3430
Dgk (Diacyl glycerol kinase)	DRSC06782		4659	8112	86	4758
Dgk (Diacyl glycerol kinase)	DRSC22236		1.02e6	9.52e5	1.94e5	1.59e5
PCB (Pyruvate carboxylase)	DRSC05939		8544		1451	
Cyp6a18 (Cytochrome P450 6a18)	DRSC16632		9792		2808	
RpL8 (Ribosomal protein L8)	DRSC08532		5236		1504	
RpL8 (Ribosomal protein L8)	DRSC08695		5360		1645	
Pym (Partner of Y14 and Mago)	DRSC22492		4.81e5	4.76e5	95431	53798
Galphaf (G protein alpha subunit f)	DRSC11171		5338		2549	
